In patent US20150152088A1, “ALKYNYL HETEROAROMATIC COMPOUND AND USE THEREOF” (Nanjing Sanhome Pharmaceutical Co., Ltd., priority 2012, published 2015):

Test system: K562 chronic myelogenous leukemia cells
Assay: MTT assay, in vitro inhibitory activity on cells
Assay type: cell-based
Settings: Homo sapiens, K562, 48 h, typically 48 hours
Text: In this example, MTT assay was used to detect in vitro inhibitory activity of the compounds prepared according to the above examples on the cells. […] AP24534 was purchased from Shanghai Xinkuo Chemical Technology Co., Ltd., China.
Dimethyl sulfoxide (DMSO) is capable of dissolving formazan in cells, and absorbance value can be measured at a wavelength of 490 nm by an enzyme-linked immunometric meter, which reflects the number of living cells. Within a certain range of the number of cells, the amount of MTT crystals formed is proportional to the number of living cells.
1. […] 2. Culturing in a 37° C., 5% CO2 incubator and keeping the cells adhering to the wall of the well. 3. […] 4. Carefully removing the supernatant, gently washing with PBS and discarding the supernatant again. 5. […] 6. Terminating culturing and carefully discarding the medium in each well. 7. Adding 150 μl dimethyl sulfoxide into each well, shaking for 10 minutes at low speed in a shaker, to make crystals fully dissolved. 8. Measuring the absorbance of each well at 490 nm by an enzyme-linked immunometric meter. 9. Calculating IC50 values.

## Cc1ccc(NC(=O)c2ccc(CN3CCN(C)CC3)cc2)cc1Nc1nccc(-c2cccnc2)n1 [Imatinib, reference compound]
  IC50: 8.42 µM
